Results taken from patent publication US10730913B1, “Antimicrobial analogues of gramicidin S” (priority 2018, dated 2020).
Part of at least one peptide drawing is inferred or uncertain, most often the ends. Peptide text beside a SMILES is read from it.

Legend:
Test in all cases: MIC determination against ESKAPE pathogens (broth culture, 96-well, turbidity)
Type in all cases: cell-based
[1] = tested on: Staphylococcus aureus; details: Staphylococcus aureus strain 635; 37° C.
Method: (§1) The antimicrobial activity of the compounds disclosed herein was tested against a variety of bacteria. The bacterial strains comprised a panel of drug-resistant gram-positive and gram-negative bacteria known as ESKAPE pathogens. The minimum inhibitory concentration (MIC) for the compounds were determined as follows. Broth cultures of ESKAPE strains were grown overnight before being diluted 1 in 1000 in fresh media. Sterile 96-well plates were loaded with culture, and compounds (in DMSO) were added at decreasing concentrations to equal a total volume of 200 μL per well. Care was taken to not add more than 2.0% DMSO to any well. Plates were then incubated at 37° C., and MICs determined after 24 h by visual inspection for a lack of turbidity in wells. All assays were performed in triplicate with identical results obtained.

[2] = tested on: Acinetobacter baumannii; details: Acinetobacter baumannii strain 5075; 37° C.
Method: as §1

[3] = tested on: Pseudomonas aeruginosa; details: Pseudomonas aeruginosa strain 1419; 37° C.
Method: as §1

[4] = tested on: Enterobacter cloacae; details: Enterobacter cloacae strain 1454; 37° C.
Method: as §1

[5] = tested on: Enterococcus faecium; details: Enterococcus faecium strain 1450; 37° C.
Method: as §1

CC(C)C[C@@H]1NC(=O)[C@H](CCCN)NC(=O)[C@H](C(C)C)NC(=O)[C@@H]2CCCN2C(=O)[C@@H](Cc2ccccc2)NC(=O)[C@H](CC(C)C)NC(=O)[C@H](CCCN)NC(=O)[C@H](C(C)C)NC(=O)[C@@H]2CCCN2C(=O)[C@@H](Cc2ccccc2)NC1=O [GS, Gramicidin S] (HELM PEPTIDE1{V.[Orn].L.[dF].P.V.[Orn].L.[dF].P}$PEPTIDE1,PEPTIDE1,1:R1-10:R2$$$V2.0)
MC90 Results, Sa (+) [1]: 3 µM
MC90 Results, Ab (−) [2]: 6.5 µM
MC90 Results, Pa (−) [3]: 20 µM
MC90 Results, Ec (−) [4]: 35 µM
MC90 Results, Ef (+) [5]: 3 µM
